These results are taken from doi:10.1101/2020.10.15.340570.

These are yes or no findings as the source states them, for the method shown. Binding seen in cells or lysates may run through a third protein. Binding calls can cover weak binding; strength is not graded here. Where a sequence is shown, tags or fusion partners need not be part of it.

The target in the assay is GST::MEG-3_(Cterm) fusion with mutations in the HMG-like domain (C. elegans). The experiment in a line: pull-down.

B1: MBP::PGL-1 (protein, UniProt Q9TZQ3 1-730)
chain: MEANKREIVDFGGLRSYFFPNLAHYITKNDEELFNNTSQANKLAAFVLGASKDAPGDEDILEMILPNDANAAVIAAGMDVCLLLGDKFRPKFDAAAEKLSGLGHAHDLVSVIDDDKKLGMLARKAKLKKTEDAKILQALLKVIAIDDAAEKFVELTELVSQLDLDFDVYVLTKILGLISEETSDEVDIIRDNVVNAFDSCKPLLKQLMLDGPKSEPADPFISLLMDPLEESVGKVVNHIAQLFEEASKNEGDESLVLRSQLGYQLFFLIVRSLADGKREVSKKILSGIPTSVRAEVFPGLQRSVYKSAVFLGNHIIQVLLGSKKSFEDWDVVGVAKDLESAWKRRAIAELIKKFQVSILEQCFDKPVPLIPQSPLNNDAVIDNVNKALQFALWLTEFYGSENETEALGELRFLDSTSKNLLVDSFKKFVQGINSKTHVTRIVESLEKCCLSDTPSGRKSNVQPSTSQQQDSAYTKEEMTTVHNTYSVNTKAQVLNGLSDTNSSGLLVDSKDSLSLQEISCDEVDSSTLLSSSRNIGEGVTVKAVDPVPEKVNDAQQQQTVNEIEMASDANQDTSSSASPEVAPSFSTDGWDSPTKSVALPPGMQQIDEEETTVADKDSTPQPQARAETAWGSGDATPMPLPAPTNQYKVSGFGEAKVAKGFGQFAPTSSAYGGGGGRGGYGGGDRGGRGGYGGDRGGRGGYGGGDRGGRGGYGGDRGRGGYGGRGGRGGF
B1: the binding entry was “binds”.
